Test results as given in patent publication US20250197453A1, “COMPOSITION COMPRISING TAT PEPTIDE VARIANT AS ACTIVE INGREDIENT FOR PREVENTING OR TREATING METABOLIC DISEASES” (priority 2021, published 2025).
These are yes or no findings as the source states them, for the method shown. Some entries that bind do so weakly or less than the wild type.

Protein sequences, listed by entry. Tags and fused reporters are not part of them. Residues count along the entry.
UniProt O60563, residues 1-266: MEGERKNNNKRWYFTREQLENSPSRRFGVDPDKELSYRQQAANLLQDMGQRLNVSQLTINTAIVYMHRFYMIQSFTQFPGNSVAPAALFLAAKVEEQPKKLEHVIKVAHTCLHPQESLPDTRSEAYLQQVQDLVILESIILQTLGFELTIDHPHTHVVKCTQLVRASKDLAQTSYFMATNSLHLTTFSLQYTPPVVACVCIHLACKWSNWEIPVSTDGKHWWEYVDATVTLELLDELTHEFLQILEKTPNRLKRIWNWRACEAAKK
UniProt P04608, residues 1-72: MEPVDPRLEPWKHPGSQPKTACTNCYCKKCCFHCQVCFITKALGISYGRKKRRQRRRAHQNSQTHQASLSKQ

What was measured:
Cyclin T1 [1] = target: Cyclin T1 (UniProt O60563); test: analysis of crystal structure of the TAT-Cyclin T1-CDK9 complex
Cyclin T1 [2] = target: Cyclin T1 (UniProt O60563); test: crystal structure of the TAT-Cyclin T1-CDK9 complex, X-ray diffraction (figure legend)

TAT (HIV-1 transcriptional activator protein, TAT peptide 72 a.a.) (from UniProt P04608 1-72)
binding (Cyclin T1 [1]): binds | binding (Cyclin T1 [2]): binds
